Reference: US9718869B2 (MANUS PHARMACEUTICALS (CANADA) LTD., priority 2012, dated 2017)

Test: general procedure: Fmoc solid-phase peptide synthesis; Wang resin, 0.37 mmol/g
Conditions: whole synthesis, scale of the general procedure 100 mg Wang polymer

| Substance | final HPLC purity (UV 220 nm) [%] | final HPLC purity (UV 226 nm) [%] |
| --- | --- | --- |
| (FR-3-NP-1)2-Lys-OH | >80 |  |
| (R-2-FR-3-NP-1)2-Lys-OH (WSERFYECCKE; dimer on Lys-OH, cyclo(Ala-Glu) moieties; printed: Trp-Ser-Glu-Arg-Phe-Tyr-Glu-Cys-Cys-Lys-Glu) | >80 |  |
| cyclo(Ala-Glu)-Trp-(Glu-Trp-Asp-Leu-Val-Gly-Ile-Pro-Gly-Lys-Arg-Ser-Glu-Arg-Phe-Tyr-Cys-Cys-Lys-Glu) (EWDLVGIPGKRSERFYCCKE; cyclo(Ala-Glu)-Trp N-terminal cyclic moiety; printed: Glu-Trp-Asp-Leu-Val-Gly-Ile-Pro-Gly-Lys-Arg-Ser-Glu-Arg-Phe-Tyr-Cys-Cys-Lys-Glu) |  | 98 |
